The list shows a part of the results.
How the values were obtained:
Test in all cases: log2 fold change, soluble protein after heating vs DMSO (PISA); higher = thermal stabilisation; K562 cells, 10 uM, 30 min; active = over 0.2 and 3.5 SD of the protein, either way, in both replicates (recomputed)
bafetinib = compound: Cc1ccc(NC(=O)c2ccc(CN3CC[C@H](N(C)C)C3)c(C(F)(F)F)c2)cc1Nc1nccc(-c2cncnc2)n1 [bafetinib]
How it was run: (§1)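 Values are thermal stability changes relative to control samples and are taken from duplicates. They are stated as log2 fold changes. Before quantification by TMTpro 16plex LC-MS/MS with equalised channel sums, K562 cells at 2×10^6 cells/mL were treated with 10 μM compound for 30 min, heated in aliquots for 3 min across 48°C-58°C, pooled, extracted in PBS with 0.5% NP-40 at 4°C, and centrifuged at 21,000xg for 90 min to give the soluble supernatant.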

Chains of the proteins cited; added tags and fusions are not shown. Lines headed by an entry give the natural chain unless they say otherwise; changes in a name come on top.
UniProt O15460: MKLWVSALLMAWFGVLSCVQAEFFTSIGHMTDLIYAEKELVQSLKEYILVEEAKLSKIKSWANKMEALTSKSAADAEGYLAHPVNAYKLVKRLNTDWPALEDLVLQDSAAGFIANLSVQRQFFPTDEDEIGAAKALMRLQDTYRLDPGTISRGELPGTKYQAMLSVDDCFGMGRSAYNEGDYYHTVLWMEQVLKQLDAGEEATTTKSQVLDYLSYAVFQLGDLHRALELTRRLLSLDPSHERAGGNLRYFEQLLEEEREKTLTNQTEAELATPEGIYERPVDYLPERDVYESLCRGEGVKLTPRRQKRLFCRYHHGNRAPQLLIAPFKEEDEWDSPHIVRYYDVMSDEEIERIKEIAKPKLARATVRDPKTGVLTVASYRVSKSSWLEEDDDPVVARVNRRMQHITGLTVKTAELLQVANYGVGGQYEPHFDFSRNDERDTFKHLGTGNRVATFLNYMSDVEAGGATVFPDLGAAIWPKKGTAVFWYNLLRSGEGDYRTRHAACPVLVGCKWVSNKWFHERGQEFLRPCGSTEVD
UniProt Q01804: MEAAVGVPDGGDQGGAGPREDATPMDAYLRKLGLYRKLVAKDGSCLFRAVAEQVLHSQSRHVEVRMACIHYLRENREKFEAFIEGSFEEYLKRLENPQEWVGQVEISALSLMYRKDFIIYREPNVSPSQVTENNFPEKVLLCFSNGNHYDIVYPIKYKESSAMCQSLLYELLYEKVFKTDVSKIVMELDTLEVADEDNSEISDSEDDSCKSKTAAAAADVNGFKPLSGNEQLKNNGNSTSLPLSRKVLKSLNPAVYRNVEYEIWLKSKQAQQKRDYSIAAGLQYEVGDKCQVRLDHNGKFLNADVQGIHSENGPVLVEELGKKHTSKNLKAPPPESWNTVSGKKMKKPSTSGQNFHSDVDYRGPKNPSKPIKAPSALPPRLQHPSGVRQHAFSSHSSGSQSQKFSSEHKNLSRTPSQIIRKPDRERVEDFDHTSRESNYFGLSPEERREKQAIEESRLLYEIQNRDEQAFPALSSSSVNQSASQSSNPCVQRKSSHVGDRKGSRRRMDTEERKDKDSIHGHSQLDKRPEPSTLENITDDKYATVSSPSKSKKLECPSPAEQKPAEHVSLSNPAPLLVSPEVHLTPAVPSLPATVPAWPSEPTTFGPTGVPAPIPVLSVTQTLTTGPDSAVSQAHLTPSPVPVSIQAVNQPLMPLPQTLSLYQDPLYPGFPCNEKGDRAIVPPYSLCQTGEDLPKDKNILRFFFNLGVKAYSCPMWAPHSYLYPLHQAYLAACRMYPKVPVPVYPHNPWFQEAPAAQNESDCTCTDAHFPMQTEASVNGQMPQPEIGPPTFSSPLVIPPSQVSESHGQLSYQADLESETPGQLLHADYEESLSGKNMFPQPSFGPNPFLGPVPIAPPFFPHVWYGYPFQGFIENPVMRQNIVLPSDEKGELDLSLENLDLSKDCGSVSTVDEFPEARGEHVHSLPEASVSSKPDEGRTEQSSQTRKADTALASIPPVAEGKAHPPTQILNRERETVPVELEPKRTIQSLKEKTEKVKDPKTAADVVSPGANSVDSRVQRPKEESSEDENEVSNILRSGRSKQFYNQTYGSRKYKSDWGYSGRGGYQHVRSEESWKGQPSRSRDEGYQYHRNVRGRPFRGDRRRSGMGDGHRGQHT
UniProt Q9Y6K5: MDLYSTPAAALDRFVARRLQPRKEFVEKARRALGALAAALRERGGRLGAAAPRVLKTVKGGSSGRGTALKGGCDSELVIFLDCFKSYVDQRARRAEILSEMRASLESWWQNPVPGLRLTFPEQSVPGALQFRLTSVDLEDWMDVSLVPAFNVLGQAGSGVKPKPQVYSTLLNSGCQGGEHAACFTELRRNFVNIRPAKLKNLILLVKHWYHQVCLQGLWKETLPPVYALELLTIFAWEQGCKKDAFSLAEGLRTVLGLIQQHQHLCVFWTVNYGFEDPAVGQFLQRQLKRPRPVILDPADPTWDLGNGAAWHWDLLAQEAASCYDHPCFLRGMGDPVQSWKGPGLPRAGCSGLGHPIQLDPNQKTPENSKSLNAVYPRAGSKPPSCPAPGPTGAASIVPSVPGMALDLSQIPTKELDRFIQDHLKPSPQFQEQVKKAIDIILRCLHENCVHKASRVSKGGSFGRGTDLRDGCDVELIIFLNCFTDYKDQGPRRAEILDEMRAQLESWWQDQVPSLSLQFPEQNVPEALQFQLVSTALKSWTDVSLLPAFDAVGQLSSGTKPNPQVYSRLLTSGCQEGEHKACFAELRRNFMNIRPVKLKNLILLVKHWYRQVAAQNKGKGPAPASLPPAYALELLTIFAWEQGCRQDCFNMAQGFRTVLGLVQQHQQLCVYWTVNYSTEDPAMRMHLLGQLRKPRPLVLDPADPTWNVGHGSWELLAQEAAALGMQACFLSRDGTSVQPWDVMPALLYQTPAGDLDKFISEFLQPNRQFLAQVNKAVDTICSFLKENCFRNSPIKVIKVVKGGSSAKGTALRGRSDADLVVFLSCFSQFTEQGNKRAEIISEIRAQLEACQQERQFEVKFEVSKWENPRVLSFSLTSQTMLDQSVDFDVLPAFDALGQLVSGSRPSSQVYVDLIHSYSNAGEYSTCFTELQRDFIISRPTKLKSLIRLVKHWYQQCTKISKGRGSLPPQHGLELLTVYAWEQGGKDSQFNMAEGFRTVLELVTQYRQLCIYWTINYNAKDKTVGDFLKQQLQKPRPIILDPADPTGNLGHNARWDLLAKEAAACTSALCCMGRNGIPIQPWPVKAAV
UniProt Q9P0S3: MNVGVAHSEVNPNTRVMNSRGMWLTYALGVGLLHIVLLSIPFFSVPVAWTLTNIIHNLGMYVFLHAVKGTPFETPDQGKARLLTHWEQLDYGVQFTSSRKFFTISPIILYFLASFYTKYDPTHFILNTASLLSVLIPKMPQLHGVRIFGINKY
UniProt Q8N138: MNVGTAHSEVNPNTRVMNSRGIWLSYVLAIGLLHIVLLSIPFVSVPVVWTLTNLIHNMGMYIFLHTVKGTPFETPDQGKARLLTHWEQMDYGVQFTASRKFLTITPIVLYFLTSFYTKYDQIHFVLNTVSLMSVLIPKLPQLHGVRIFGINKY
UniProt Q9UBU9: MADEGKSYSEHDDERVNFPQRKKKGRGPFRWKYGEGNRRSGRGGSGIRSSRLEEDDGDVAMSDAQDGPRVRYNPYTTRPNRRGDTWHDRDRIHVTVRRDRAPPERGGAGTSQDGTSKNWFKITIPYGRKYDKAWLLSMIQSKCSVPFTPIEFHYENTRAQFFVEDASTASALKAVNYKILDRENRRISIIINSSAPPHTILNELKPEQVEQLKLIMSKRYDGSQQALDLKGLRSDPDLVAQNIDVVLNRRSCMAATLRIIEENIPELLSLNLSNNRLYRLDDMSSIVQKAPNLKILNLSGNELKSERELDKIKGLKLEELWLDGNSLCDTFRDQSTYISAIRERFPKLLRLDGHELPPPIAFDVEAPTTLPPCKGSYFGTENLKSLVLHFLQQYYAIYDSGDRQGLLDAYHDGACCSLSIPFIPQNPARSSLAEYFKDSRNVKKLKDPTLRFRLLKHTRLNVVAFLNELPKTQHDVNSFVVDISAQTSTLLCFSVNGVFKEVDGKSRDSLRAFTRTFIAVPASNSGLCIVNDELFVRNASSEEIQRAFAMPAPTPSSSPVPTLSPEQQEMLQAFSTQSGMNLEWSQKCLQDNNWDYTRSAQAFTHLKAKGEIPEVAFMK
UniProt P47900: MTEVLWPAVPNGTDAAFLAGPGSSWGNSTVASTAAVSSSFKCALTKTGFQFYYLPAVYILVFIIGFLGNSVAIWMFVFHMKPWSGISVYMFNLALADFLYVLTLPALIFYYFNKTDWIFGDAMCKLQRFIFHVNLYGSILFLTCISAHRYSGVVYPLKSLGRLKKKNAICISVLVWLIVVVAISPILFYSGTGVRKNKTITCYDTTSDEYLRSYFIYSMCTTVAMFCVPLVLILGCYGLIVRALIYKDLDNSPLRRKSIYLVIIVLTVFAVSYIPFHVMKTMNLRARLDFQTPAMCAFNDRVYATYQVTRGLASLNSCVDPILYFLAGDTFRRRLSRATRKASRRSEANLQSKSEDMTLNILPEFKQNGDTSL
UniProt Q9BRQ3: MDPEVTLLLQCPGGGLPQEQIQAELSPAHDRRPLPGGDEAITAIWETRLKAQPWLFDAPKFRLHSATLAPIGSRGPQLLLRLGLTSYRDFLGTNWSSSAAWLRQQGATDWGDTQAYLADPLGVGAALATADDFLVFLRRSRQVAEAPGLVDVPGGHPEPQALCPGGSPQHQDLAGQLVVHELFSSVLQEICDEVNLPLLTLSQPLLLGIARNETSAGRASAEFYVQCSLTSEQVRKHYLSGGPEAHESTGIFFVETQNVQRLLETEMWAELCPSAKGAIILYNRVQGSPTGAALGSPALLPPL
UniProt Q86UD1: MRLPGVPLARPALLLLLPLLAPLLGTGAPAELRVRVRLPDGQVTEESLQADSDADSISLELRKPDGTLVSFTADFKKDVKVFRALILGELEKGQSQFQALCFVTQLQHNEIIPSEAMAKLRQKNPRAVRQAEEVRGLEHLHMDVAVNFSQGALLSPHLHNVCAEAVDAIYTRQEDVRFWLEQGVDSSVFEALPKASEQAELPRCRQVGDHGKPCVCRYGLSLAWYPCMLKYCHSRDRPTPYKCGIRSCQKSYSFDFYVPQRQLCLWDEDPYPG
UniProt Q99935: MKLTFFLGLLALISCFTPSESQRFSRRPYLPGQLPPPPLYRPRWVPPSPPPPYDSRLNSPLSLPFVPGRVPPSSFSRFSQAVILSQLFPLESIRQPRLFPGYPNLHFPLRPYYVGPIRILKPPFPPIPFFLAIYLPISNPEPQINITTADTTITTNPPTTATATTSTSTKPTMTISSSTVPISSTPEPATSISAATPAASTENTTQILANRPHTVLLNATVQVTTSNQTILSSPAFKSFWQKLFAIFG
UniProt O95848: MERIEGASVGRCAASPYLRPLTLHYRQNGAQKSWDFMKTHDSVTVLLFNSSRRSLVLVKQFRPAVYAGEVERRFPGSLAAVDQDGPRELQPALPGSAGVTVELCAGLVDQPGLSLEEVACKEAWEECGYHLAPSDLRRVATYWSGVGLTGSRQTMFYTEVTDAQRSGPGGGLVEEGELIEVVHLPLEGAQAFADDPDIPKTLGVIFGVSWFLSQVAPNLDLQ
UniProt Q9H4L5: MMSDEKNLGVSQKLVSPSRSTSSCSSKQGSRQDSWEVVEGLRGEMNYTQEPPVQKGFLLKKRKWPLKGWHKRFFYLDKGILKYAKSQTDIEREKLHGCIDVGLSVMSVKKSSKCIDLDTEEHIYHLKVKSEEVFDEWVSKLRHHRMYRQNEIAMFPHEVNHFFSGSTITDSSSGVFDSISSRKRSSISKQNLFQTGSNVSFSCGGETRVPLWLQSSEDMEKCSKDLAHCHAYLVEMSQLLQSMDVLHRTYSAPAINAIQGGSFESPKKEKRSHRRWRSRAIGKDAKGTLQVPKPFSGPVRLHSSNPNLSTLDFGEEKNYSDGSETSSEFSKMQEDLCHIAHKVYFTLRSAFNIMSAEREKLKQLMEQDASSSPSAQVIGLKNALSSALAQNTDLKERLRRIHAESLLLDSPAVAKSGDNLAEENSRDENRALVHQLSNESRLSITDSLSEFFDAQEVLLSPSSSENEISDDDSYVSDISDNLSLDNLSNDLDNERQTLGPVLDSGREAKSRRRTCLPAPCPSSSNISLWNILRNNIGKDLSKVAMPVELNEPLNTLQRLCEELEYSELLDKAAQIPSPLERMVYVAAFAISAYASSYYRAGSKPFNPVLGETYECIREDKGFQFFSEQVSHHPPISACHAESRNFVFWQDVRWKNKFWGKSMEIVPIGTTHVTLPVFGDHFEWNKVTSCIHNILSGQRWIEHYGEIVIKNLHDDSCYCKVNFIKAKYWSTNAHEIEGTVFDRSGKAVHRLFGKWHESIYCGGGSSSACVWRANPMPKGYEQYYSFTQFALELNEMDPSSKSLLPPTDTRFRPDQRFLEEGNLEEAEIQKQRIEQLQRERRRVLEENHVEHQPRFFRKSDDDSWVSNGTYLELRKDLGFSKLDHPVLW
UniProt Q6ZVK8: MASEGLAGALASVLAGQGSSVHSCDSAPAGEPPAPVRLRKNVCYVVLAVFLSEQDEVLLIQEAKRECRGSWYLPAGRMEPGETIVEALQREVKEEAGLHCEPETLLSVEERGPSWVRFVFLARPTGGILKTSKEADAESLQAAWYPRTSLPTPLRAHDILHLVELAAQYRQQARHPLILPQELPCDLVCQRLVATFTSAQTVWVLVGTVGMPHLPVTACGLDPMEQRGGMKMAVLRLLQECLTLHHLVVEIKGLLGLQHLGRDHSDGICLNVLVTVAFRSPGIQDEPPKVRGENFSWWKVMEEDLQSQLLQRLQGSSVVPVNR
UniProt Q9Y5N6: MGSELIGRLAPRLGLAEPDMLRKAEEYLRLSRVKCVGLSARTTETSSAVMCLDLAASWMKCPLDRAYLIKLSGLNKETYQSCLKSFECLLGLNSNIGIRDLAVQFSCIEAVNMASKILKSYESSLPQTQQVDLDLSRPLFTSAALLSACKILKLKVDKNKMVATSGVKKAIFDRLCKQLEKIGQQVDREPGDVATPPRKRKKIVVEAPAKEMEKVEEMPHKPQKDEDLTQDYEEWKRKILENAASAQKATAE

[1] = compound: Cc1cccc(CC(=O)N2CCc3c2ccc(-c2cn(C)c4ncnc(N)c24)c3F)n1
How it was run: as §1

nilotinib = compound: Cc1cn(-c2cc(NC(=O)c3ccc(C)c(Nc4nccc(-c5cccnc5)n4)c3)cc(C(F)(F)F)c2)cn1 [nilotinib]
How it was run: as §1

[2] = compound: Cc1nc(Nc2n[nH]c3c2CN(C(=O)N[C@H](CN(C)C)c2ccccc2)C3(C)C)c2sccc2n1
How it was run: as §1

dasatinib = compound: Cc1nc(Nc2ncc(C(=O)Nc3c(C)cccc3Cl)s2)cc(N2CCN(CCO)CC2)n1 [dasatinib]
How it was run: as §1

[3] = compound: Cc1ncc(-c2ccnc(Nc3ccc(S(C)(=O)=O)cc3)n2)n1C(C)C
How it was run: as §1

[4] = compound: Cn1cc(-c2ccc3c(c2)CCN3C(=O)Cc2cccc(C(F)(F)F)c2)c2c(N)ncnc21
How it was run: as §1

[5] = compound: Cn1cc(-c2ccc3nnc(C(F)(F)c4ccc5ncccc5c4)n3n2)cn1
How it was run: as §1

tipifarnib = compound: Cn1cncc1[C@@](N)(c1ccc(Cl)cc1)c1ccc2c(c1)c(-c1cccc(Cl)c1)cc(=O)n2C [tipifarnib]
How it was run: as §1

mubritinib = compound: FC(F)(F)c1ccc(/C=C/c2nc(COc3ccc(CCCCn4ccnn4)cc3)co2)cc1 [mubritinib]
How it was run: as §1

Measured: log2 fold change

P4HA2 (UniProt O15460)
inactive: bafetinib 0.012 | [1] -0.007 | nilotinib 0.056 | [2] 0.04 | dasatinib -0.057 | [3] -0.008 | [4] -0.102 | [5] -0.02 | tipifarnib 0.007 | mubritinib -0.059

P2RX4 isoform 2 (UniProt Q99571)
inactive: bafetinib 0.01 | nilotinib 0.012 | [2] 0.113 | dasatinib -0.025 | [3] -0.036 | [4] 0.042 | [5] 0.145 | tipifarnib -0.059 | mubritinib 0.095

NUDCD2 (UniProt Q8WVJ2)
inactive: bafetinib 0.017 | [1] 0.033 | nilotinib -0.119 | [2] -0.216 | dasatinib -0.171 | [3] -0.026 | [4] 0.02 | [5] 0.066 | tipifarnib -0.1 | mubritinib 0.077

OPHN1 (UniProt O60890)
inactive: bafetinib -0.035 | [1] -0.134 | nilotinib -0.088 | [2] 0.051 | dasatinib -0.04 | [3] 0.093 | [4] 0.028 | [5] 0.099 | mubritinib 0.035

OTUD4 (UniProt Q01804)
inactive: bafetinib 0.069 | [1] -0.016 | nilotinib 0.037 | [2] -0.039 | dasatinib 0.046 | [3] -0.077 | [4] -0.082 | [5] -0.09 | tipifarnib 0.064 | mubritinib -0.024

NVL (UniProt O15381)
inactive: bafetinib -0.151 | [1] -0.047 | [5] 0.022 | mubritinib 0.061

NUDT7 (UniProt P0C024)
inactive: bafetinib 0.418 | [1] -0.122 | nilotinib 0.093 | [2] 0.006 | [3] -0.03 | [5] 0.027

OTUB1 (UniProt Q96FW1)
inactive: bafetinib -0.038 | [1] 0.047 | nilotinib -0.067 | [2] -0.016 | dasatinib 0.01 | [3] -0.01 | [4] 0.03 | [5] -0.038 | tipifarnib -0.051 | mubritinib 0.031

OGFOD3 (UniProt Q6PK18)
inactive: bafetinib 0.122 | nilotinib 0.196 | [2] 0.027 | [3] -0.025 | [5] -0.001 | tipifarnib -0.026 | mubritinib 0.006

OAS3 (UniProt Q9Y6K5)
inactive: bafetinib 0.064 | dasatinib 0.082 | [5] -0.37

ODF2L isoform 4 (UniProt Q9ULJ1)
inactive: bafetinib -0.07 | nilotinib -0.046 | [2] 0.063 | [3] -0.035 | mubritinib -0.212

OGN (UniProt P20774)
inactive: bafetinib -0.029 | nilotinib 0.032 | [2] 0 | dasatinib -0.099 | [3] 0.173 | [4] 0.228 | [5] 0.14 | tipifarnib 0.087 | mubritinib -0.1

ORMDL1 (UniProt Q9P0S3)
inactive: mubritinib -0.043

ORMDL3 (UniProt Q8N138)
inactive: tipifarnib 0.032

NUDT17 (UniProt P0C025)
inactive: bafetinib -0.131 | nilotinib 0.017 | [2] 0.071 | [3] -0.011 | [4] 0.187 | [5] 0.041 | mubritinib -0.156

NXF1 (UniProt Q9UBU9)
inactive: [1] -0.138 | nilotinib -0.308 | [2] -0.254 | [3] -0.311 | [5] -0.13 | tipifarnib 0.147

OBSCN (UniProt A6NGQ3)
inactive: bafetinib -0.156 | nilotinib -0.397 | [2] -0.017 | [3] 0.05 | [4] -0.201 | [5] 0.192 | tipifarnib 0.355

PABPC1 (UniProt H0YAR2)
inactive: [5] 0.061 | mubritinib 0.26

P2RY1 (UniProt P47900)
inactive: [1] -0.234 | dasatinib 0.025 | tipifarnib 0.09 | mubritinib -0.204

NUDT6 (UniProt P53370)
inactive: nilotinib -0.1 | [2] 0.083 | dasatinib -0.005 | [3] 0.08 | [4] 0.426 | [5] 0.05 | tipifarnib -0.022 | mubritinib -0.049

NUDT22 (UniProt Q9BRQ3)
inactive: bafetinib 0.283 | dasatinib 0.18 | mubritinib 0.703

OAF (UniProt Q86UD1)
inactive: [5] 0.199 | mubritinib -0.104

PABPC1 (UniProt E5RJM8)
inactive: tipifarnib 0.065

NUDT8 (UniProt Q8WV74)
inactive: bafetinib 0.094 | nilotinib 0.01 | [2] -0.054 | dasatinib -0.1 | [3] 0.06 | [4] 0.192 | [5] 0.029 | tipifarnib -0.008 | mubritinib -0.032

ORAI1 (UniProt Q96D31)
inactive: bafetinib 0.133 | nilotinib 0.018 | [2] -0.086 | [3] 0.053 | [5] 0.004 | tipifarnib 0.044 | mubritinib -0.251

OPRPN (UniProt Q99935)
inactive: mubritinib 0.03

NUDT14 (UniProt O95848)
inactive: tipifarnib -0.148

OSBPL3 (UniProt Q9H4L5)
inactive: nilotinib 0.316 | [2] 0.114 | dasatinib 0.447 | [3] -0.213 | [4] -0.081 | [5] -0.173 | tipifarnib -0.17

NUDT18 (UniProt Q6ZVK8)
inactive: [1] -0.034 | nilotinib -0.074 | [2] -0.032 | [3] 0.05 | [4] -0.057 | [5] 0.008 | tipifarnib 0.12 | mubritinib 0.199

OSGEPL1 (UniProt Q9H4B0)
inactive: [1] 0.123 | dasatinib 0 | [4] 0.13 | tipifarnib -0.174

ORC6 (UniProt Q9Y5N6)
inactive: nilotinib -0.136 | [2] -0.006 | [3] 0.127 | [5] -0.071 | tipifarnib 0.189

Source: the supplement of paper PMC10849652
